Values of other authors as cited in patent US11241410B2, “Method and compound for the treatment of covid-19” (priority 2020, dated 2022).
At least one structure is not confirmed: it was looked up by name or label, or the drawing left a doubt.

Tests used:
SARS-CoV-2 main protease = target: T1, SARS-CoV-2 main protease (Severe acute respiratory syndrome coronavirus 2, UniProt P0DTD1); settings: auto dock; cited from earlier work
T1 construct: also MProtease (SARS-CoV-2 main protease)

COVID-19 = settings: compared to a standard of care control; cited from earlier work
HCoV = settings: Huh7, 4 days, 96 well, reference compound; cited from earlier work

## CCC(CC)COC(=O)[C@H](C)N[P@](=O)(OC[C@H]1O[C@@](C#N)(c2ccc3c(N)ncnn23)[C@H](O)[C@@H]1O)Oc1ccccc1 [Remdesivir]
SARS-CoV-2 main protease
  Dissociation Constant: 3.1E−06
  SMINA score: −7.6
  Vina score: −7.5
COVID-19
  time to clinical improvement: not associated with a difference in time to clinical improvement
HCoV
  EC50: 6.4 nM
